Part of at least one peptide drawing is inferred or uncertain, most often the ends. Ends that are not written are not given here.
How the values were obtained:
hexokinase 2 (HK-2) = test: HK-2 mitochondrial/cytosolic fraction level in melanoma cells by western blot; format: cell-based, mouse; conditions: 40 μg/ml, 5 hours, vs PBS
B16 cells = test: Glycolytic rate / extracellular acidification rate (ECAR) by Seahorse; format: cell-based, mouse; conditions: 40 μg/ml, 5 hours, vs PBS; for extracellular acidification rate (ECAR) / glycolysis: B16 cells isolated from WT mice, Seahorse
B16 melanoma cells [1] = test: B16 melanoma lung metastasis/colonization model (tail vein injection); format: in vivo, mouse; conditions: B16 cells into WT mice; peptide i.v. day 5; analyzed 5 days later; vs PBS; n=4; tumor number p<0.01, melanin p<0.05; listed as iIL-1α-peptide
Excerpt: FIGS. 4A-4C depict in accordance with various embodiments of the invention, that TAT-IL-1α peptide reduced lung metastasis. FIG. 4A) Experimental Schematic (top), metastatic lungs (bottom images). FIG. 4B) Quantification of tumor number in TAT-Control and TAT-IL-1α. FIG. 4C) Melanin content of the metastatic lungs in TAT-Control and TAT-IL-1α.
FIGS. 11A-11C depict in accordance with various embodiments of the invention, that the iIL-1α-peptide reduces melanoma colonization in the lung. FIG. 11A) Experimental scheme and representative lung pictures. FIG. 11B) Quantification of tumor number, **p<0.01. FIG. 11C) Quantification of melanin content, *p<0.05. n=4.
The B16 (also referred herein as “B16F10”) mouse melanoma metastasis model is widely accepted, as B16 cells injected via tail vein reliably colonize the lungs, with easily identifiable tumors after 7-14 days. While the use of a genetic melanoma model may be ideal, it requires the use of immunodeficient mice or the complicated and expensive humanized mice. […]
(§1) The mouse models used were C57Bl/6 WT or Il1α−/− mice injected with B16 cells (2×10^5 tail vein), (3×10^5 subcutaneous) or C57Bl/6 WT mice injected with YUMM1.7 cells (5×10^5 subcutaneous). The IL-1α, pAkt1 and HK-2 levels were determined by WB. The glycolytic rate in B16 cells was measured by Seahorse.
The iIL-1α-peptide reduces tumor burden in vivo. […] The mice were analyzed 5 days later.

Protein sequences, listed by entry. Tags and fused reporters are not part of them. Lines headed by an entry give the natural chain unless they say otherwise; changes in a name come on top.
UniProt P31750: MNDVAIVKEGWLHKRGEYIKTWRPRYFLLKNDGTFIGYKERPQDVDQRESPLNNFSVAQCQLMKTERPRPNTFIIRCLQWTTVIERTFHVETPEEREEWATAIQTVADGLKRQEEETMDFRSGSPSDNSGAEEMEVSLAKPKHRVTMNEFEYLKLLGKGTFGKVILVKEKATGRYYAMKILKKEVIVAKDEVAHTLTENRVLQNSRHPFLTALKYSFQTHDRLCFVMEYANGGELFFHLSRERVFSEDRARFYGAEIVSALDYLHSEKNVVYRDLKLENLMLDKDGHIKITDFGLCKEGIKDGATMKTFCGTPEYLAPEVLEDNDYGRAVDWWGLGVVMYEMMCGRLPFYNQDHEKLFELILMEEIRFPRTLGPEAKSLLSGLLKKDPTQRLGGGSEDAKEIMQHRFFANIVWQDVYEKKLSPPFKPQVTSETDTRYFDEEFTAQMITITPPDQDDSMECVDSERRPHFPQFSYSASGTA

B16 melanoma cells [2] = test: B16 subcutaneous melanoma tumor model; format: in vivo, mouse; conditions: peptide i.v. days 8 and 10, day 15, vs PBS
[3] = Membrane lipid strip binding (ECL detection); conditions: membrane lipid strips incubated with peptide (5 μg) or recombinant protein
Description: (§2) FIGS. 12A-12F depict in accordance with various embodiments of the invention, that the iIL-1α-peptide reduces cutaneous melanoma tumor. FIG. 12A-12B) Membrane lipid strips were incubated with (5 μg) SPDIA or Control peptide and detected by ECL. FIG. 12C) B16 or YUMM1.7 cells were treated with SPDIA or Control peptide (40 μg/ml) for 5 h, and pAkt1 and Akt1 in cell lysate were determined by WB. FIG. 12D) Experimental scheme. FIG. 12E) tumor pictures. FIG. 12F) Quantification of tumor volume, ** p<0.05. and Quantification of tumor mass, ** p<0.05. n=5.
FIGS. 14A-14C show intracellular IL-1α reduced Akt1 activation. FIG. 14A) pAkt1 and total Akt1 in cell lysate was determined by WB. FIG. 14B) Membrane lipid strip was incubated with recombinant human proIL-1α. IL-1α was detected by ECL system. FIG. 14C) PIP3 and Na, K-ATPase levels in plasma membrane fraction were determined by WB.
Intracellular IL-1α reduced Akt1 activation.
IL-1α pro-piece reduces melanoma tumor progression. To investigate the suppressive effect of intracellular proIL-1α in melanoma tumor progression, we designed a short Peptide Derived from IL-1A pro-piece (SPDIA) “GKVLKKRRLSL” (SEQ ID NO:1).

YUMM1.7 cells = test: YUMM1.7 subcutaneous (cutaneous) melanoma tumor model; format: in vivo, mouse; conditions: vs PBS; for cutaneous melanoma tumor growth: WT mice with YUMM1.7 cutaneous tumor, peptide i.v., n=5
Akt1 = Akt1 (Mus musculus, UniProt P31750); test: Akt1 activation (pAkt1) in melanoma cells by western blot; format: cell-based; design: endogenous in cells; conditions: 40 μg/ml, 5 hours, vs PBS; for Akt1 activation (pAkt1): B16 cells isolated from tumors from WT mice
Description: FIG. 3 depicts in accordance with various embodiments of the invention, that TAT-IL-1α peptide diminished Akt1 activation and increased HK-2 mitochondrial dissociation. B16 or Yumm 1.7 murine melanoma cells were treated with TAT-IL-1α (40 μg/ml) or TAT-Control peptide for 5 hours. HK-2 level and pAkt1 activation in the cytosolic and mitochondrial fraction were detected by Western Blot. GAPDH was measured as a loading control.
FIGS. 10A-10C depict in accordance with various embodiments of the invention, the iIL-1α-peptide reduces Akt1 activation and glycolysis in melanoma cells. B16 cells isolated from tumors from WT mice were treated with iIL-1α-mimic peptide (iIL-1α-peptide) (40 μg/ml) or PBS for 5 hours. FIG. 10A) Human N-terminal IL-1α pro-piece (LAPP) peptide (iIL-1α-peptide). FIG. 10B) HK-2 and pAkt1 in cytosolic and mitochondrial fraction were determined by WB. COX-IV and GAPDH was used as a loading controls. FIG. 10C) Extracellular acidification rate (ECAR) was measured by Seahorse and compared over time in PBS and iIL-1α-peptide treated mice.
as §2
Next, the inventors checked whether TAT-IL-1α peptide regulates Akt1 activation, because it has an Akt1 consensus motif. LPS stimulation is required for Akt1 activation in macrophages. […]
as §1, with “Seahorse. […]” for “Seahorse.”

[4] = 5×10^5 YUMM1.7 cells subcutaneous in WT mice, peptide i.v. days 8 and 11, day 18

GKVLKKRRLSL [SPDIA, GKVLKKRRLSL]
HK-2 mitochondrial translocation (hexokinase 2 (HK-2); B16 cells isolated from WT mice): significantly inhibited | mitochondrial HK-2 (hexokinase 2 (HK-2); both B16 and YUMM1.7 cells): significantly reduced | extracellular acidification rate (ECAR) / glycolysis (B16 cells; listed as iIL-1α): reduced | extracellular acidification rate (ECAR) / glycolysis (B16 cells; listed as iIL-1α-peptide): reduces | glycolytic rate (B16 cells; B16 cells): decreased | melanoma colonization in the lungs (B16 melanoma cells [1]): reduces | tumor mass (B16 melanoma cells [2]; B16 subQ in WT mice, n=5): reduced | tumor volume (B16 melanoma cells [2]; B16 subQ in WT mice, n=5): reduced | tumor development (B16 melanoma cells [2]; B16 subQ in female WT mice): decreased | interaction with phosphoinositides on membrane lipid strip [3]: interacted with PIP and PIP2 | tumor mass (YUMM1.7 cells; [4]): reduced | tumor volume (YUMM1.7 cells; [4]): reduced | cutaneous melanoma tumor growth (YUMM1.7 cells; listed as SPDIA peptide): reduced | cutaneous melanoma tumor growth (YUMM1.7 cells; listed as iIL-1α-peptide): reduces | Akt1 activation (pAkt1) (Akt1; listed as iIL-1α-mimic peptide): significantly inhibited | Akt1 activation (pAkt1) (Akt1; listed as iIL-1α-peptide): reduces | Akt1 phosphorylation (S473) (Akt1; both B16 and YUMM1.7 cells): significantly reduced

Source: US12168037B2, “Intracellular IL-1 alpha peptide methods and compositions” (CEDARS-SINAI MEDICAL CENTER, priority 2018, dated 2024)
